Results taken from US11684306B2, “Stable water isotope labeling and magnetic resonance imaging for visualization of the presence of and prediction of the likelihood of occurence of rapidly dividing cells” (THE UNITED STATES OF AMERICA, AS REPRESENTED BY THE …, priority 2016, dated 2023).
Entries after “also recorded” stand apart in the source; their conditions may differ.

Experiments:
mouse tumor cells = test: In vitro deuterated water labeling of cultured mouse tumor cells; assay type: cell-based
cGVHD-affected mice = test: Deuterium chemical shift imaging (CSI, dMRI) of HSCT recipient mice after 2H2O labeling; assay type: in vivo, mouse; conditions: day +28, 21 days of 2H2O labeling to TBW of ~5%; normalized to 5% 2H2O phantom

Question: How did the dA deuterium enrichment (mouse tumor cells; cultured mouse tumor cells labeled in vitro with deuterated water) turn out when `[2H]O[2H]` [deuterated water] was run?
Answer: ~50%

Question: What about the spectroscopic deuterium signal (mouse tumor cells; mouse tumor cells labeled in vitro during culture, versus un-enriched water phantom) of the same molecule?
Answer: clear spectroscopic deuterium signal

Question: And the “2H CSI signal in liver, cGVHD-affected (allogeneic) mice versus syngeneic controls” value (cGVHD-affected mice)?
Answer: significantly greater; also recorded: significantly higher

Question: What about the “2H CSI signal in quadriceps muscle (tissue not targeted by cGVHD), allogeneic versus syngeneic” value (cGVHD-affected mice) of the same molecule?
Answer: no difference; also recorded: did not differ
